These are yes or no findings as the source states them, for the method shown. Binding can be weak; no strength is given. For some of these results: Binding seen in cells or lysates may run through a third protein.
Assays:
[1] = target: IL-2 receptor common gamma chain (cγc), full length (1-369) (human) (UniProt P31785); assay: yeast two-hybrid, NIK as bait, cγc as prey, beta-gal assay
[2] = target: IL-2 receptor common gamma chain (cγc), full length (1-369) (human) (UniProt P31785); assay: co-immunoprecipitation of endogenous proteins with anti cγc from PBMC
[3] = target: IL-2 receptor common gamma chain (cγc), full length (1-369) (human) (UniProt P31785); assay: co-immunoprecipitation with anti cγc from PBMC, Western blot
[4] = target: IL-2 receptor common gamma chain (cγc), full length (1-369) (human) (UniProt P31785); assay: co-immunoprecipitation of endogenous proteins with anti cγc from PBMC, Western blot
[5] = target: IL-2 receptor common gamma chain (cγc), full length (1-369) (human) (UniProt P31785); assay: co-immunoprecipitation with anti cγc from 293T cells, Western blot with anti His
[6] = target: IL-2 receptor common gamma chain (cγc), full length (1-369) (human) (UniProt P31785); assay: co-immunoprecipitation from 293-T lysates
[7] = target: IL-2 receptor common gamma chain (cγc), full length (1-369) (human) (UniProt P31785); assay: co-immunoprecipitation with anti myc from 293-T lysate, Western blot with anti cγc

The chains behind the UniProt entries cited, without tags or fusion partners. Where a name states a change or a piece, a line headed by the entry shows the natural chain unless it says otherwise.
UniProt P31785: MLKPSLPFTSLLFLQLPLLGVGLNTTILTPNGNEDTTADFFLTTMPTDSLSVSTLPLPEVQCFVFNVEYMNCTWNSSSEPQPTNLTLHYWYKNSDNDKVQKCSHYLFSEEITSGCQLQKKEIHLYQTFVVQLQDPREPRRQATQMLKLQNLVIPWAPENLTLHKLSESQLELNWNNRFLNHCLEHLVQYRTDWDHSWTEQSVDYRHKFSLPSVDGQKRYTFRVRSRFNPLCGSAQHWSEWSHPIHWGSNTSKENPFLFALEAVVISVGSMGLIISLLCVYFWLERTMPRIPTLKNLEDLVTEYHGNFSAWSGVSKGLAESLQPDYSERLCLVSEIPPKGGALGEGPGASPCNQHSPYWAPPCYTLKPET
UniProt Q99558: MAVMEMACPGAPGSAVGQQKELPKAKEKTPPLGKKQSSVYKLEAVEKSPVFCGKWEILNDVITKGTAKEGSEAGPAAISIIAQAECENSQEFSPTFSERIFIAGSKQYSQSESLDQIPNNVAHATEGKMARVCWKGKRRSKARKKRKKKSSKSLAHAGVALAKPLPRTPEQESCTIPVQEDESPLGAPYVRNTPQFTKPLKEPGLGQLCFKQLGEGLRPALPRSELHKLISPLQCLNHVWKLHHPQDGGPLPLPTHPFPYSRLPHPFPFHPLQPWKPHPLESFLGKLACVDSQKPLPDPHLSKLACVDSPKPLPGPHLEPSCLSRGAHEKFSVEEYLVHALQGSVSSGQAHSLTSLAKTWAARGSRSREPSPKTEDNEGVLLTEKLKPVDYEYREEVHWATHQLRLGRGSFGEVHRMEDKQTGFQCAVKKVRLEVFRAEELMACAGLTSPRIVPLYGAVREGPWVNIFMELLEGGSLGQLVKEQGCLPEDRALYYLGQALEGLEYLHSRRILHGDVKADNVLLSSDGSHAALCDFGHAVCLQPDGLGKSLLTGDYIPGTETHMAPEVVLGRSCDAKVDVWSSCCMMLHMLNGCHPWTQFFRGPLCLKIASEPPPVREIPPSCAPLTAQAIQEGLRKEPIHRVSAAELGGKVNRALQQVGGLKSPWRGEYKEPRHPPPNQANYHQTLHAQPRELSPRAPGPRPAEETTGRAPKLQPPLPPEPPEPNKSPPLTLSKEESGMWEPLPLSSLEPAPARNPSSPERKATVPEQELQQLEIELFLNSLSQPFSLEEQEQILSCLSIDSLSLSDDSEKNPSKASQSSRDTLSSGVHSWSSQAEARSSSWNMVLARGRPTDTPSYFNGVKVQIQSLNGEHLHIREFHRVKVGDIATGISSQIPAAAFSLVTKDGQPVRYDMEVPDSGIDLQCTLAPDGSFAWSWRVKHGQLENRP

NF-κB-inducing kinase, NIK (MAP3K14), full length (from UniProt Q99558 1-947) (enzyme)
binding [1]: binds | binding [2]: binds | binding [3]: binds | binding [4]: binds

NIK 1-947 (full length), His tagged (from UniProt Q99558 1-947) (enzyme)
binding [5]: binds

myc tagged NIK (pcS3MTNIK) (from UniProt Q99558 1-947) (enzyme)
binding [6]: binds | binding [7]: binds
